At least one compound was matched to its structure with a doubt left.
Tested on: Hippocampal cultures from embryonic rats
Test: Inositol plus DHA, presynaptic Bassoon puncta by quantitative immunostaining
Assay type: cell-based, rat
Settings: compared to a DMSO control; FIG. 7
Description: Example 5 illustrates synergistic effect of inositol and DHA. FIG. 7 illustrates the effect of inositol in combination with DHA for presynaptic development. Hippocampal cultures from embryonic rats were analyzed by quantitative immunostaining. […] (See FIG. 7).

## CC/C=C\C/C=C\C/C=C\C/C=C\C/C=C\C/C=C\CCC(=O)O [DHA, docosahexaenoic acid, reference compound]
  presynaptic Bassoon puncta: increased the presynaptic Basson puncta

— patent US20180168215A1, “NUTRITIONAL COMPOSITIONS CONTAINING INOSITOL AND USES THEREOF” (Mead Johnson Nutrition Company, priority 2016, published 2018)
